Assay results as given in the supplement of paper PMC10849652.
The other results are listed elsewhere or left out.

By UniProt entry, the sequences of proteins in these tests, tags left out. Where a name states a change or a piece, a line headed by the entry shows the natural chain unless it says otherwise.
UniProt Q6FI81: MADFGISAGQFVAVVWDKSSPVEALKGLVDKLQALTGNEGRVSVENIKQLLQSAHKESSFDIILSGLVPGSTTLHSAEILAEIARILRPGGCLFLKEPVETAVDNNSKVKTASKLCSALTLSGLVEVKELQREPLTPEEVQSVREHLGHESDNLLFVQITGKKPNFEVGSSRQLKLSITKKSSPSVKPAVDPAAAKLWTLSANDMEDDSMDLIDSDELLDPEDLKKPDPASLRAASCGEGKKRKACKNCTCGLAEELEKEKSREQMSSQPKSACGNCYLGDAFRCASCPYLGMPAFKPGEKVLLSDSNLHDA
UniProt Q8NFW8: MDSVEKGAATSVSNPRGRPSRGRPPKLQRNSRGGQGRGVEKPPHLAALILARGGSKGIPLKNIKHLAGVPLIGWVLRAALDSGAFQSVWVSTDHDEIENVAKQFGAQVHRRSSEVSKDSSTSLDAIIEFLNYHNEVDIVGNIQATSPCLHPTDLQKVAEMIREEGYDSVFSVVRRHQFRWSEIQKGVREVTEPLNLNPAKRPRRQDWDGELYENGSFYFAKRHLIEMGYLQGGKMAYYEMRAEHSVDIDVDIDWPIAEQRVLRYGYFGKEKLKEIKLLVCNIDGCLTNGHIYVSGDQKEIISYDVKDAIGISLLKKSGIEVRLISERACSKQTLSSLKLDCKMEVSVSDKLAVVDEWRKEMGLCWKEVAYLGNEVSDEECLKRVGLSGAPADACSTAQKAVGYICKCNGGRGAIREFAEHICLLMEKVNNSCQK
UniProt P30085: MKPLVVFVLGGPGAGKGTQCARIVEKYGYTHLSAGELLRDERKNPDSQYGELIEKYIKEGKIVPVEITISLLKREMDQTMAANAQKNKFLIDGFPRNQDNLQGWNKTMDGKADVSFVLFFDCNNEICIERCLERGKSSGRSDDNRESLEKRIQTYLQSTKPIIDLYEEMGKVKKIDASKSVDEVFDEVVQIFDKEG
UniProt Q8WUH1: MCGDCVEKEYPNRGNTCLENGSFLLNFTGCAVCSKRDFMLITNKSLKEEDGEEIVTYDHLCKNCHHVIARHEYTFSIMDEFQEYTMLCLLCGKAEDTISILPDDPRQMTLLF
UniProt P51788: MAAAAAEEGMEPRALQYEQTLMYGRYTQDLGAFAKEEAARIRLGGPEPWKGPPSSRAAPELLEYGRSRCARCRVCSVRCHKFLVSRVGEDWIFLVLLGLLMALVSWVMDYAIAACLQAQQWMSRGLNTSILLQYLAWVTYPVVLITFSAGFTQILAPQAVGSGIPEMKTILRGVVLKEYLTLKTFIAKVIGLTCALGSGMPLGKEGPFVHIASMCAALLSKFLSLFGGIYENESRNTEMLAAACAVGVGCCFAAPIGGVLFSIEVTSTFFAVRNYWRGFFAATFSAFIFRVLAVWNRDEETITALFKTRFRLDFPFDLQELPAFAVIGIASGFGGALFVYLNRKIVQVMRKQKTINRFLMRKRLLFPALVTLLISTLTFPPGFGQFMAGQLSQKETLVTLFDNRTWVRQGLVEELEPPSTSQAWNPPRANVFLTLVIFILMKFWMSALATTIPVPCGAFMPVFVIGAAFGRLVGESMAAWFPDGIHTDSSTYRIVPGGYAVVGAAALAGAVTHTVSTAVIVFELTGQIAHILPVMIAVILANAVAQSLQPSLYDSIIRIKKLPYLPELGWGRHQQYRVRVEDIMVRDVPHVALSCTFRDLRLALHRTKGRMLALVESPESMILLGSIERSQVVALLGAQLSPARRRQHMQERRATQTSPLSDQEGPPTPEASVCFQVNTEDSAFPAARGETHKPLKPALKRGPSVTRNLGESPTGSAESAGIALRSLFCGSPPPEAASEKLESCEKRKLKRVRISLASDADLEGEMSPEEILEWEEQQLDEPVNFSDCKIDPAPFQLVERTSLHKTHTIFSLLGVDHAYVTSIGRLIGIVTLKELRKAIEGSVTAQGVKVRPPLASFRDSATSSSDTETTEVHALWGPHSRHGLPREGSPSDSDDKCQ
UniProt Q5EBM0: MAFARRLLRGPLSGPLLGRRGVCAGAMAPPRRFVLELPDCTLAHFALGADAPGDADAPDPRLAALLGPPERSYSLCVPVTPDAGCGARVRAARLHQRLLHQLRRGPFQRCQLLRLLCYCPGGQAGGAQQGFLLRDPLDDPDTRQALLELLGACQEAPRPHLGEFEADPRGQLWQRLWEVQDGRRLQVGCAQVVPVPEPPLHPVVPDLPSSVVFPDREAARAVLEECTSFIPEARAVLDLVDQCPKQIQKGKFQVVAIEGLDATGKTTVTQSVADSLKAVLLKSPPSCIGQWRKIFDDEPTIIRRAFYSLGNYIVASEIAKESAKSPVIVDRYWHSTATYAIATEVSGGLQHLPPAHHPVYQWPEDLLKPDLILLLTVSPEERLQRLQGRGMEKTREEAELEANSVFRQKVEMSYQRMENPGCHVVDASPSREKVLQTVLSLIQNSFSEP
UniProt P02452, whole entry, looked up: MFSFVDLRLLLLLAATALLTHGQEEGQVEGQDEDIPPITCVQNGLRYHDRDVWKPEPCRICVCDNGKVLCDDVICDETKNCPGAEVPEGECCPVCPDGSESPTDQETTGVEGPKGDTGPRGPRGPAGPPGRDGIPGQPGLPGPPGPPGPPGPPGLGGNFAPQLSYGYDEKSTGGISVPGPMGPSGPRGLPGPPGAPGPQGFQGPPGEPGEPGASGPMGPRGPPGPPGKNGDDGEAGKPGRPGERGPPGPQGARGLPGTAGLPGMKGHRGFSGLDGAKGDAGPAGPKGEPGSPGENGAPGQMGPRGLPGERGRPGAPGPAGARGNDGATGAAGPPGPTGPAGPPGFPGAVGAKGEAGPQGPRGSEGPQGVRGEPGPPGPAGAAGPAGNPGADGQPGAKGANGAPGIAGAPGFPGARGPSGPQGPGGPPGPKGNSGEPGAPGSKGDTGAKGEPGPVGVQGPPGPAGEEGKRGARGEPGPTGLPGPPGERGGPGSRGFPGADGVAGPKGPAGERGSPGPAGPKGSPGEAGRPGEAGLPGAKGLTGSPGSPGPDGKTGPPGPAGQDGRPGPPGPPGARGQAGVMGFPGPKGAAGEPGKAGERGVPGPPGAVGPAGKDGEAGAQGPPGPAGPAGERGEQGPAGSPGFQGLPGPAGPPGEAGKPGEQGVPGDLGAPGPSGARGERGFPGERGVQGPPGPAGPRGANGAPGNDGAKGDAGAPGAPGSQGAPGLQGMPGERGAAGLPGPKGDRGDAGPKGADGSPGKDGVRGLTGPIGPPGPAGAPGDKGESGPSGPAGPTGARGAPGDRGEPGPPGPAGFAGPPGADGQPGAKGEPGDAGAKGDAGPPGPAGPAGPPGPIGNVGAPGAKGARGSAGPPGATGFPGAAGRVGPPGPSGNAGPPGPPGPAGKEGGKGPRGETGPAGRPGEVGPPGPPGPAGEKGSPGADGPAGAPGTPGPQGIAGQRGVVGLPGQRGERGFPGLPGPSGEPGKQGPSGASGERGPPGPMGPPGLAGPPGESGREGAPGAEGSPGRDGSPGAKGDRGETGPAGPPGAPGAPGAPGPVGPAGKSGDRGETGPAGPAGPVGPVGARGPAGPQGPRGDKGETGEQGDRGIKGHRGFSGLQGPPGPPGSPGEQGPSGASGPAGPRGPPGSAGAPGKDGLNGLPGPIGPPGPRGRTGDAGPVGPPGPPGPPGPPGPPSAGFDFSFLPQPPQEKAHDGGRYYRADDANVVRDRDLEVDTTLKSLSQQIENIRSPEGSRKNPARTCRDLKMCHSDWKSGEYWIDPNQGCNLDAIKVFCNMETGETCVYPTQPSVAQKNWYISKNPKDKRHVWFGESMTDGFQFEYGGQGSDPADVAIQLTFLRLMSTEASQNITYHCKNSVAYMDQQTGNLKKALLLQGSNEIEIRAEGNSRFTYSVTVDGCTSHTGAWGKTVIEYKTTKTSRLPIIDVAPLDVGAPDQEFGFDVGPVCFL
UniProt O15247: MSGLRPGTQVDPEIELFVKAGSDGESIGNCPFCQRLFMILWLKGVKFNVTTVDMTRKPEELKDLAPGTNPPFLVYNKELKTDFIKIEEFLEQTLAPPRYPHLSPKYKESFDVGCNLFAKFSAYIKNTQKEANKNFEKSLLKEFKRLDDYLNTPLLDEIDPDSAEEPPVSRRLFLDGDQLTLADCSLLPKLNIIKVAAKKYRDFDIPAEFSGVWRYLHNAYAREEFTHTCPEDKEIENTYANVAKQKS
UniProt Q9NX76: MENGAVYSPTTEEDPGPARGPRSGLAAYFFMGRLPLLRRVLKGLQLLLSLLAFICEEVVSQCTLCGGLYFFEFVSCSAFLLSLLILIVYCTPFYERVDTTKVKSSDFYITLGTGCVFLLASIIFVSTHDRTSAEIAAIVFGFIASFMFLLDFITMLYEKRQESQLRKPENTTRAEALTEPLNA
UniProt P33552, whole entry, looked up: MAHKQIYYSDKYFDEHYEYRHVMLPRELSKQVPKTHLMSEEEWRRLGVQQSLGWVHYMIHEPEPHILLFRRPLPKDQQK
UniProt Q96MW5: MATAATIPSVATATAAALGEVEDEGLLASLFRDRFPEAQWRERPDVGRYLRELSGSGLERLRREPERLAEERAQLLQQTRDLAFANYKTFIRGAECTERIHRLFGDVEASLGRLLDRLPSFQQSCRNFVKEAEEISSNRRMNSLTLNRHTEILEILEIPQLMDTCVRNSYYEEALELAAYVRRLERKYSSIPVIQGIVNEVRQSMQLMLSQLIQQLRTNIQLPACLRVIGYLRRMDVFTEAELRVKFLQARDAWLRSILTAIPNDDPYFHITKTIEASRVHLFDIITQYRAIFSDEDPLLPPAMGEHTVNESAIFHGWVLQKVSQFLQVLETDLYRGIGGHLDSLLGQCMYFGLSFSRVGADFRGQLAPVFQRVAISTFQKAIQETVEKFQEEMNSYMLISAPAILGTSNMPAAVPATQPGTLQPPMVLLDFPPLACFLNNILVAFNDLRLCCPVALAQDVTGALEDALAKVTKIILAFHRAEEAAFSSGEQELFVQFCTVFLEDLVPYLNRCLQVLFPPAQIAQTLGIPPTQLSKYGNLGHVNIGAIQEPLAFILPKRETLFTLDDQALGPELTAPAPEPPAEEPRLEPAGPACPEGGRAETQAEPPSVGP
UniProt O75122: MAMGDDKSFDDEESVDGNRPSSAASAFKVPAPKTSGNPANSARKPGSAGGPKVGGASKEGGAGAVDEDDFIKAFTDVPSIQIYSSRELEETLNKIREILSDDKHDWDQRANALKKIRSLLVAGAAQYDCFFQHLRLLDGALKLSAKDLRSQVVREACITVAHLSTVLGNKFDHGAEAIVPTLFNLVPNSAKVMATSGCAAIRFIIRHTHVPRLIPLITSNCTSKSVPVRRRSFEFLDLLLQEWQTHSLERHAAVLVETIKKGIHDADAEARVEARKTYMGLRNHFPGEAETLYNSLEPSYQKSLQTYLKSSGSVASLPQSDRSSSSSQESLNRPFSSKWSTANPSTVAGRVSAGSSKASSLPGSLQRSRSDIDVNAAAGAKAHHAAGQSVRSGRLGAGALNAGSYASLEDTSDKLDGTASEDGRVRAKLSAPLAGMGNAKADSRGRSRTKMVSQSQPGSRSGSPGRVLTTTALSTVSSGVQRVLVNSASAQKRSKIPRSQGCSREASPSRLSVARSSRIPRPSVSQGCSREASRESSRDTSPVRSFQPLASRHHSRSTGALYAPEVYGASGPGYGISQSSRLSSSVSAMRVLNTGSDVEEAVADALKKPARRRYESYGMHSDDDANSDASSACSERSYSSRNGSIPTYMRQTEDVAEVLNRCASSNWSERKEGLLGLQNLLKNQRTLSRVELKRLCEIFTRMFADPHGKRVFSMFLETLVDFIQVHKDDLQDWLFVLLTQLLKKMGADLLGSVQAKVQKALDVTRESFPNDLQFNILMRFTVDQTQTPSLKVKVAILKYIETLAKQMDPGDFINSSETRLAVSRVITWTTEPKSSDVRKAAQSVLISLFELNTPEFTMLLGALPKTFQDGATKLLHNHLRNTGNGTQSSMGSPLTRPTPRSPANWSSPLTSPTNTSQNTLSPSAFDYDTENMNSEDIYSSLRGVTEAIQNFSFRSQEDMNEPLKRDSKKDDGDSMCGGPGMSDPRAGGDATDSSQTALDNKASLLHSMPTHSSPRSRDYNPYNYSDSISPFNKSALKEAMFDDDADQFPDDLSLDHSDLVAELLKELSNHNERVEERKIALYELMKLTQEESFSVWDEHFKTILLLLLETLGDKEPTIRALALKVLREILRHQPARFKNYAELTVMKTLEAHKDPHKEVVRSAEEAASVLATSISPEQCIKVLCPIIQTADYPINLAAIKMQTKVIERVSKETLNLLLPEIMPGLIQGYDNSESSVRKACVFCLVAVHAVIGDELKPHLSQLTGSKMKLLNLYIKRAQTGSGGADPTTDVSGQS

Tests used:
Experiment in all cases: log2 fold change, soluble protein after heating vs DMSO (PISA); higher = thermal stabilisation; K562 cells, 10 uM, 30 min; active = over 0.2 and 3.5 SD of the protein, either way, in both replicates (recomputed)
[1] = compound: C1=CC=C(C=C1)[C@H](COC2=CC3=C(C=C2)NC(=O)N3)NC(=O)C4=CC=CN(C4=O)CC5=CC(=C(C=C5)F)F
In short: (§1)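 For each measurement, 10 μM compound was applied for 30 min to K562 cells at 2×10^6 cells/mL. Aliquots were heated for 3 min across 48°C-58°C, pooled, and extracted in PBS with 0.5% NP-40 at 4°C; the supernatant after 21,000xg for 90 min was soluble protein. This was quantified by TMTpro 16plex LC-MS/MS with channel sums equalised, and thermal stability was reported relative to control samples from duplicates, on a log2 fold-change scale.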

[2] = compound: CC1=C(SC2=C1C(=N[C@H](C3=NN=C(N32)C)CC(=O)N)C4=CC=C(C=C4)Cl)C
In short: as §1

[3] = compound: CC1=C2C(=CC=C1)N=C(N(C2=O)C3=CC=CC=C3C)CN4C=NC5=C(N=CN=C54)N
In short: as §1

[4] = compound: Cc1sc2c(c1C)C(c1ccc(Cl)cc1)=N[C@@H](CC(=O)OC(C)(C)C)c1nnc(C)n1-2
In short: as §1

[5] = compound: c1ccc([C@@H]2C[C@H]2NC2CCNCC2)cc1
In short: as §1

Measured: log2 fold change

CIAPIN1 (UniProt Q6FI81)
inactive: [1] -0.026 | [2] 0.056 | [3] 0.051 | [4] -0.014 | [5] -0.027

CMAS (UniProt Q8NFW8)
inactive: [1] 0.032 | [2] -0.034 | [3] -0.053 | [4] 0.076 | [5] -0.016

CMPK1 (UniProt P30085)
inactive: [1] 0.012 | [2] 0.074 | [3] -0.026 | [4] 0.024 | [5] -0.011

CHURC1 isoform 2 (UniProt Q8WUH1)
inactive: [1] -0.037 | [2] -0.006 | [3] 0.11 | [4] -0.089 | [5] 0.016

Taken from above (3 entries):
CMAS (UniProt Q8NFW8)
inactive: [1] 0.032 | [2] -0.034 | [3] -0.053 | [4] 0.076 | [5] -0.016

CMPK1 (UniProt P30085)
inactive: [1] 0.012 | [2] 0.074 | [3] -0.026 | [4] 0.024 | [5] -0.011

CHURC1 isoform 2 (UniProt Q8WUH1)
inactive: [1] -0.037 | [2] -0.006 | [3] 0.11 | [4] -0.089 | [5] 0.016

Carrying on.

CLCN2 (UniProt P51788)
inactive: [1] 0.028 | [2] 0.04 | [3] 0.014 | [5] 0.005

CMPK2 (UniProt Q5EBM0)
inactive: [1] -0.022 | [2] -0.009 | [3] 0.094 | [4] 0.002 | [5] -0.022

COL1A1 (UniProt P02452)
inactive: [1] 0.143 | [2] 0.102 | [3] 0.486 | [4] 0.114 | [5] 0.132

CLIC2 (UniProt O15247)
inactive: [1] -0.057 | [2] 0.037 | [3] 0.115 | [4] -0.032 | [5] -0.019

CMTM6 (UniProt Q9NX76)
inactive: [1] -0.005 | [2] 0.139 | [3] 0.127 | [4] 0.036 | [5] 0.028

CKS2 (UniProt P33552)
inactive: [1] -0.084 | [4] -0.08

COG8 (UniProt Q96MW5)
inactive: [2] -0.029 | [5] 0

CLASP2 (UniProt O75122)
inactive: [1] 0.059 | [2] 0.117 | [5] -0.222
